Assay results: patent US20210236465A1, “METHODS AND COMPOSITIONS FOR TREATING HETEROTOPIC OSSIFICATION” (President and Fellows of Harvard College, priority 2019, published 2021)
For at least one compound, name, drawing or mass did not settle the structure.

Test system: Gnas^-/- SMP cells
Assay: Osteoblast differentiation (ALP) of Gnas^-/- SMP cells in osteogenic medium
Format: cell-based, mouse
Conditions: Gnas^-/- SMP cells cultured with the inhibitors for 7 days (FIG. 11G)
Method: For ALP staining, cells were fixed in 4% PFA for 20 minutes, washed with PBS for three times, then stained with 1-Step NBT/BCIP (Thermo, 34042) for 30 minutes and washed by PBS. There were three biological replicates for each group. ALP staining was quantified as previously described. Cells were scraped into a radioimmunoprecipitation assay (RIPA) buffer (containing 50 mM Tris-HCl pH 7.5, 150 mM NaCl, 5% Glycerol, 1 mM EDTA, 1% NP-40, 0.1% SDS and 0.25% Na-deoxycholate) and centrifuged. The enzymatic alkaline phosphatase activity in the supernatant of cell lysate was assayed by measuring the chromogenic p-nitrophenol formed from the enzymatic hydrolysis of p-nitrophenyl phosphate (the substrate) by light absorbance at 405 nm. The alkaline phosphatase activity was normalized to total protein, as measured by BCA protein assay. All experiments were performed in triplicates and means and standard deviations were calculated.
Subcutaneous mesenchymal progenitor (SMP) cells are potential osteoprogenitor cells within the subcutaneous connective tissue which can be induced to become osteoblast cells and adipocytes. […]
Cre recombinase adenovirus from Berk (˜10^12 pfu/ml) were diluted 1:50 in 100 μl PBS solution and injected into the subcutaneous region of the limbs of 4 weeks old mice. […] Ectopic bone formation was analyzed by μCT and skeletal preparation. […]

For `CC(=O)c1c(C)c2cnc(Nc3ccc(N4CCNCC4)cn3)nc2n(C2CCCC2)c1=O` [Palbociclib], the “osteoblast differentiation (ALP)” value was “but not”.
